According to patent publication US20080103205A1, “Pesticidal compositions and methods of use” (priority 2006, published 2008):

System: Drosophila melanogaster
Test: Toxicity against adult Drosophila melanogaster, sugar solution feeding
Type: in vivo
Protocol: Toxicity tests were conducted using mixed sex adults of D. melanogaster maintained on artificial diet in the department of entomology, Virginia Tech. Test concentrations of 6.25, 12.5, 25, 50 or 100 ppm were prepared in 0.2% dimethyl sulfoxide (DMSO) for DIDS, 9-AC, NPPB, and IAA-94. The above final concentrations were obtained after mixing them in 10 ml of 10% sugar solution. Similar preparations with 0.2% DMSO alone served as controls. One end of a cotton wick was dipped in 0.5 ml of sugar solution and placed on the glass vial containing 10 adult flies of mixed sex. Each concentration of test chemical had 5 replications. Mortality counts of flies were taken 24, 48, and 72 hrs after treatment. Insects without movement upon probing were considered dead. LC50 values and confidence intervals for each chemical were estimated using POLO PLUS software program. The data provided in Tables 3-A and 3-B below confirm that AT blockers are toxic to insects in acute exposures.

SMILES | Slope (48 hr) | Slope (72 hr)
CC1(C2CCCC2)Cc2cc(OCC(=O)O)c(Cl)c(Cl)c2C1=O (single isomer, unassigned; (+)) [IAA-94, (+)(2-cyclopentyl-6,7-dichloro-2-methyl-1-oxo-5-indanyloxy) acetic acid] | 1.65 ± 0.42 | 1.74 ± 0.41
O=C(O)c1cc([N+](=O)[O-])ccc1NCCCc1ccccc1 [NPPB, 5-Nitro-2-(3-phenylpropylamino)benzoic acid] | 1.38 ± 0.49 | 1.77 ± 0.37
O=S(=O)(O)c1cc(N=C=S)ccc1/C=C/c1ccc(N=C=S)cc1S(=O)(=O)O [DIDS, trans-4,4′-diisothiocyanatostilbene-2,2′-disulfonic acid, reference compound] | 1.67 ± 0.37 | 1.88 ± 0.41
O=C(O)c1c2ccccc2cc2ccccc12 [9-AC, anthracene-9-carboxylic acid] | 1.74 ± 0.42 | 1.91 ± 0.47
